# From patent publication US9051325B2, “Bicyclic [5,6] imidazo pyrimodone compounds for use in the treatment of diseases or conditions mediated by Lp-PLA2” (GlaxoSmithKline Intellectual Property Development Limited, priority 2013, dated 2015)
# Some entries share one result that the patent states for a list of compounds.
# Target: Recombinant human PLA2 VIIB (Homo sapiens, UniProt Q99487)
# Experiment: PLA2 VIIB assay
# Assay type: biochemical
row,Compound,selectivity between human recombinant Lp-PLA2 and PLA2 VIIB
1,"CC1Cn2c(cc(OCc3ccc(F)cc3F)nc2=O)N1C (centres unmarked) [Example E5, 7-((2,4-difluorobenzyl)oxy)-1,2-dimethyl-2,3-dihydroimidazo[1,2-c]pyrimidin-5(1H)-one]",< 100 fold
2,"C[C@H]1Cn2c(cc(OCc3cc(F)cc(C#N)c3)nc2=O)N1 [Example E35, (S)-3-fluoro-5-(((2-methyl-5-oxo-1,2,3,5-tetrahydroimidazo[1,2-c]pyrimidin-7-yl)oxy)methyl)benzonitrile]",< 100 fold
3,"C[C@H]1Cn2c(cc(OCc3cccc(F)c3F)nc2=O)N1C [Example E111, (S)-7-((2,3-difluorobenzyl)oxy)-1,2-dimethyl-2,3-dihydroimidazo[1,2-c]pyrimidin-5(1H)-one]",< 100 fold
4,"CN1c2cc(OCc3ccc(F)c(C(F)(F)F)c3)nc(=O)n2CC1(C)C [Example E99, 7-((4-fluoro-3-(trifluoromethyl)benzyl)oxy)-1,2,2-trimethyl-2,3-dihydroimidazo-[1,2c]pyrimidin-5(1H)-one]",< 100 fold
5,"CC1(C)Cn2c(cc(OCc3ccc(F)c(F)c3)nc2=O)N1 [Example E120, 7-((3,4-difluorobenzyl)oxy)-2,2-dimethyl-2,3-dihydroimidazo[1,2-c]pyrimidin-5(1H)-one]",< 100 fold
